PubChem BioAssay AID1259424 | University of Nebraska Medical Center | 2018
Purpose: 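Seek colon cancer survival genes behaving like KSR1, using a six-gene signature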 (primary screen). Cell system: human HCT116 colon cancer cells. Reagent: siRNA pool against human genes, 50 nM. Measurement: 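Six signature mRNAs by branched-DNA multiplex assay, scaled to two housekeeping genes and non-targeting median, log2; matched to mean KSR1 knockdown profile by Pearson correlation and euclidean distance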. Scale: mean correlation with KSR1 profile: higher = expression change more like KSR1 knockdown; mean distance from KSR1 profile: higher = expression change less like KSR1 knockdown.
Shown is an unselected part of about 14,000 reagents. 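Higher correlation or smaller distance means closer resemblance to KSR1 loss; control wells, including KSR1 knockdowns, recur on many plates.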 The numbers tell different reagents against one gene apart. Some reagents were tested in more than one well and are listed for each. Not all columns of the deposit are shown. Not given: the time to read-out.

PUS1 — mean correlation with KSR1 profile = 0.54; mean distance from KSR1 profile = 1.38
TUBA1C — mean correlation with KSR1 profile = -0.0194; mean distance from KSR1 profile = 5.05
MYBL2 — mean correlation with KSR1 profile = 0.302; mean distance from KSR1 profile = 1.95
MRTFB — mean correlation with KSR1 profile = 0.291; mean distance from KSR1 profile = 1.74
DKFZP586K1520 (retired record) — mean correlation with KSR1 profile = -0.491; mean distance from KSR1 profile = 3.93
FFAR1 — mean correlation with KSR1 profile = 0.103; mean distance from KSR1 profile = 2.87
APOL4 — mean correlation with KSR1 profile = -0.0416; mean distance from KSR1 profile = 3.83
NDUFAF7 — mean correlation with KSR1 profile = 0.459; mean distance from KSR1 profile = 1.27
ZZZ3 — mean correlation with KSR1 profile = 0.489; mean distance from KSR1 profile = 2.07
AQP2 — mean correlation with KSR1 profile = 0.112; mean distance from KSR1 profile = 1.23
ITGA6 — mean correlation with KSR1 profile = -0.745; mean distance from KSR1 profile = 2.34
CNTFR — mean correlation with KSR1 profile = -0.0129; mean distance from KSR1 profile = 1.81
CAD — mean correlation with KSR1 profile = -0.227; mean distance from KSR1 profile = 2.32
CDK5RAP2 — mean correlation with KSR1 profile = 0.0946; mean distance from KSR1 profile = 2.85
GDF2 — mean correlation with KSR1 profile = -0.259; mean distance from KSR1 profile = 2.42
CBLC — mean correlation with KSR1 profile = -0.358; mean distance from KSR1 profile = 2.61
AGT — mean correlation with KSR1 profile = -0.649; mean distance from KSR1 profile = 3.84
CDC25A — mean correlation with KSR1 profile = 0.155; mean distance from KSR1 profile = 0.974
ZFHX2 #1 — mean correlation with KSR1 profile = 0.28; mean distance from KSR1 profile = 3.42
ZFHX2 #2 — mean correlation with KSR1 profile = -0.531; mean distance from KSR1 profile = 3.81
GPAA1 — mean correlation with KSR1 profile = 0.286; mean distance from KSR1 profile = 2.27
PACS2 — mean correlation with KSR1 profile = 0.0581; mean distance from KSR1 profile = 1.49
COPS3 — mean correlation with KSR1 profile = -0.7; mean distance from KSR1 profile = 2.78
ZBTB21 — mean correlation with KSR1 profile = -0.174; mean distance from KSR1 profile = 1.95
GFRA3 — mean correlation with KSR1 profile = 0.595; mean distance from KSR1 profile = 2.21
GRK3 — mean correlation with KSR1 profile = 0.665; mean distance from KSR1 profile = 1.34
GRK3 — mean correlation with KSR1 profile = 0.419; mean distance from KSR1 profile = 1.85
MPV17 — mean correlation with KSR1 profile = 0.295; mean distance from KSR1 profile = 2.01
UBE2D1 — mean correlation with KSR1 profile = -0.296; mean distance from KSR1 profile = 1.61
PKD1L1-AS1 — mean correlation with KSR1 profile = 0.13; mean distance from KSR1 profile = 2.06
NT5C3A — mean correlation with KSR1 profile = 0.583; mean distance from KSR1 profile = 2.05
AMMECR1 — mean correlation with KSR1 profile = 0.666; mean distance from KSR1 profile = 1.68
RADX — mean correlation with KSR1 profile = 0.0923; mean distance from KSR1 profile = 1.56
PEA15 — mean correlation with KSR1 profile = -0.321; mean distance from KSR1 profile = 2.07
TENM1 — mean correlation with KSR1 profile = 0.242; mean distance from KSR1 profile = 1.51
TNFRSF10C — mean correlation with KSR1 profile = -0.151; mean distance from KSR1 profile = 1.86
